Reference: paper PMC7566457

Chains of the proteins cited; added tags and fusions are not shown. Lines headed by an entry give the natural chain unless they say otherwise; changes in a name come on top.
UniProt A0A7U3QAH2: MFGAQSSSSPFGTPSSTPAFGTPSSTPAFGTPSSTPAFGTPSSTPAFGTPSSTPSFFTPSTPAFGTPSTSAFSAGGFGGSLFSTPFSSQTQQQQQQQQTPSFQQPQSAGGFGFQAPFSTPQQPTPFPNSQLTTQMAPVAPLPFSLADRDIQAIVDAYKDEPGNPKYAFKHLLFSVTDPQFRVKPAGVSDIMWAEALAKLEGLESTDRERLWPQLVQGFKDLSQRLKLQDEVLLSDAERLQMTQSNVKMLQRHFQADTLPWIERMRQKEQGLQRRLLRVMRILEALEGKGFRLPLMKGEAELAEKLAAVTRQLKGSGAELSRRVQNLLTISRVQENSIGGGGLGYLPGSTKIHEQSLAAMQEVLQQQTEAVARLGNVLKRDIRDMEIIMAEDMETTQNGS

Biological target: MdNup62^508–613 (truncated MdNup62 in pGBKT7) (Malus domestica (apple))
Test: two-hybrid; bait in pGBKT7 and prey in pGADT7 co-transformed into Gold Yeast Two-Hybrid cells; growth and blue colour on SD/-Trp/-Leu/-His/-Ade/+X-α-gal medium

binding: binds
Substance: MdNup54 (open reading frame in pGADT7) (from UniProt A0A7U3QAH2)

Results are given in words; binding and its absence hold for the method and conditions named. Binding can be weak; no strength is given.
